Source: PubChem BioAssay AID1347076 (National Center for Advancing Translational Sciences (NCATS), 2019)
Screen size: about 400,000 compounds; about 13,000 (3.2%) were called active. Inconclusive means that the source gave no clear call. Such entries were picked first, then a sample of the others. Calls come from the whole dose curve; as a rule, active = well fitted cell-killing curve with a large enough effect; inconclusive = small, poorly fitted or top-dose-only effect, or effect the other way; inactive = flat fitted curve, though single readings scatter. A potency beside an inconclusive call is a rough fit, not a confirmed value.

assay: qHTS assay for MDR1-selective chemotherapeutics: Primary screen using the drug-selected MDR subline cells KB-V1; conditions: KB-V1 MDR cells viability, CellTiter-Glo, 72 h; activity change, negative = cytotoxicity: at 46.1 µM (top of the series); note: nearly all actives have a fitted effect of over 60% in size
How it was run: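 Compound-treated KB-V1 multidrug-resistant cells, 72 h, 37 degrees C; viability by CellTiter-Glo. Fitted qHTS curves give the values.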
% is set by controls: 0 for no effect and ±100 for the full control effect; potency is the fitted concentration of half-maximal effect.

Row | Structure (SMILES) | activity change, negative = cytotoxicity | Potency
1 | CCOC(=O)c1cc2c(nc1N)CCCC2 | inactive: 2.26% | 
2 | CCCNc1ccc(C(=O)OCC)cc1[N+](=O)[O-] |  | active: 13 µM
3 | Cc1cc(C)c(/C=N/n2c(C)cc(C)c(C#N)c2=O)c(C)c1 |  | inconclusive: 10.3 µM [cytotoxic, partial curve, poor fit]
4 | Cc1nnsc1C(=O)NC1CCCc2c1cnn2-c1ccc(F)cc1F (stereo not given) |  | inconclusive: 1.46 µM [cytotoxic, full curve, poor fit]
5 | Cc1c(NC(=O)c2ccc(NS(=O)(=O)c3ccccc3)cc2)c(=O)n(-c2ccccc2)n1C | inactive: 5.14% | 
6 | Cc1cc2nnc(SCC(=O)NC3CCCCC3)n2c(N)n1 | inactive: -5.66% | 
7 | O=C(O)CCN1c2cccc3cccc(c23)S1(=O)=O |  | inconclusive: 0.461 µM [rising, partial curve, poor fit]
8 | CC1CCCCN1C(=O)COC(=O)c1ccc(=O)n(Cc2ccccc2)n1 (stereo not given) |  | inconclusive: 16.4 µM [rising, partial curve]
9 | CNC(=S)N1N=C(c2ccc(C)cc2)CC1c1cc(OC)ccc1OC (stereo not given) |  | inconclusive: 20.6 µM [cytotoxic, single point]
10 | Cc1cc(/C=C/c2c(C)cnc3ccccc23)ccc1N(C)C |  | active: 16.4 µM
11 | O=C(NCCc1ccccc1)c1cnn(-c2ccc(F)cc2)c1-n1cccc1 |  | inconclusive: 16.4 µM [cytotoxic, single point]
12 | O=C(Cc1n[nH]c(=O)c2ccccc12)OCC(=O)c1ccc2c(c1)OCCO2 |  | inconclusive: 18.4 µM [cytotoxic, partial curve, poor fit]
13 | CCCOc1c(OC)cc(Cl)cc1C1NC(=O)NC(C)=C1C(=O)NCc1ccccc1 (stereo not given) |  | inconclusive: 29.1 µM [cytotoxic, single point]
14 | O=C(Nc1ccc(Br)cn1)c1cccc2ccccc12 |  | active: 1.03 µM
15 | O=C(CN1CCN(Cc2ccccc2Cl)C1=O)N1CCCCCC1 |  | inconclusive: 14.6 µM [cytotoxic, partial curve]
16 | COc1ccc(NC(=S)N2CCN(S(=O)(=O)c3ccc(OC)cc3)CC2)cc1 |  | inconclusive: 29.1 µM [cytotoxic, single point]
17 | CN(C)CCOCCSc1ccc(Cl)cc1 |  | inconclusive: 14.6 µM [cytotoxic, single point]
18 | CC1(Oc2ccccc2)CCN(Cc2csc3ccccc23)C1 (stereo not given) | inactive: 2.35% | 
19 | COC(=O)Cc1ccc(NC(=S)NCc2ccccc2Cl)cc1 |  | inconclusive: 20.6 µM [cytotoxic, single point]
20 | O=C1NC[C@@H](CCCCN2C[C@H](Cc3ccc(O)cc3)N(Cc3ccccc3)C(=O)C2=O)N(Cc2ccccc2)C1=O | inactive: 0% | 

Look-ups from above:
Value of O=C(Cc1n[nH]c(=O)c2ccccc12)OCC(=O)c1ccc2c(c1)OCCO2 under Potency: inconclusive: 18.4 µM [cytotoxic, partial curve, poor fit]
Value of CCCOc1c(OC)cc(Cl)cc1C1NC(=O)NC(C)=C1C(=O)NCc1ccccc1 (stereo not given) under Potency: inconclusive: 29.1 µM [cytotoxic, single point]
